Common to all, as to experiment: two-hybrid
Assay [1] concerns the target T1, ABI5-Binding Protein 3 (AFP3), yeast two-hybrid fusions (Arabidopsis thaliana) (UniProt Q94F39).
T1 sequence: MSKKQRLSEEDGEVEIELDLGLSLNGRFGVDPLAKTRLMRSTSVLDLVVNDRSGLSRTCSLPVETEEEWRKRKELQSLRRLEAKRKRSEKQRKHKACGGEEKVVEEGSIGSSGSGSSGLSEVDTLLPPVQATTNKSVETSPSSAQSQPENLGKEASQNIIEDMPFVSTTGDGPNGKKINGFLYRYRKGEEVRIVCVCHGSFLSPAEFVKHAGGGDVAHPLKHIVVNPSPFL

The chains behind the UniProt entries cited, without tags or fusion partners.
UniProt Q39026: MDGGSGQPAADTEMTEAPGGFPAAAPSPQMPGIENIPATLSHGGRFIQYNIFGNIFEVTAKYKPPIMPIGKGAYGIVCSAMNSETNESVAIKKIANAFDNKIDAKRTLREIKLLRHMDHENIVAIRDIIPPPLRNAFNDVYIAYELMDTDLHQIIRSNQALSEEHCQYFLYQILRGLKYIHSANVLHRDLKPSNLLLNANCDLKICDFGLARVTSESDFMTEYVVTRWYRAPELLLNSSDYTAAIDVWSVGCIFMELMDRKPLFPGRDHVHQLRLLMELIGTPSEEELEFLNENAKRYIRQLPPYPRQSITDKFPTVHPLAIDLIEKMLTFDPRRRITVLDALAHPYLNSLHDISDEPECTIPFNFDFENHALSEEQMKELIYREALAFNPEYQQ

The target of assay [2] is T2, ABI5-Binding Protein 4 (AFP4), yeast two-hybrid fusions (Arabidopsis thaliana) (UniProt Q9S7Z2).
T2 sequence: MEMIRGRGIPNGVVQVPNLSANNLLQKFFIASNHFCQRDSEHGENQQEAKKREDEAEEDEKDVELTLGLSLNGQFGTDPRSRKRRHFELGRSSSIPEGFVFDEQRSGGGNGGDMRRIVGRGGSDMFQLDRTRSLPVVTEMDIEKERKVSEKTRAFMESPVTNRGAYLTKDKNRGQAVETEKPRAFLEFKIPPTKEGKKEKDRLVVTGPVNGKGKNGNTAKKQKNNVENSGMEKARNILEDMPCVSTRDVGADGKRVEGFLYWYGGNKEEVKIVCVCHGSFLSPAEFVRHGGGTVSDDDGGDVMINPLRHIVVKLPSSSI

Assay [3] addresses T3, MPK3, BD fusion (Arabidopsis thaliana) (UniProt Q39023).
T3 sequence: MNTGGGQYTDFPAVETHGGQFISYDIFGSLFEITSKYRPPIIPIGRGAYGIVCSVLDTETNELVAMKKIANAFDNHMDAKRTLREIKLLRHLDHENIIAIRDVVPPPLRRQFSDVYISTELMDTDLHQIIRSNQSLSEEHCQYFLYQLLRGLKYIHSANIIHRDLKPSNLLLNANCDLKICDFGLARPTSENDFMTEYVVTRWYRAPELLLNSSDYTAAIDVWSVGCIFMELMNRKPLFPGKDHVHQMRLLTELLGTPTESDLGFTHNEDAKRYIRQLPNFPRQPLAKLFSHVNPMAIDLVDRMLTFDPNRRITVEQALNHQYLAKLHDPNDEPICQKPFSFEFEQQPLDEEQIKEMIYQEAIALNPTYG

The target of assay [4] is MPK6, BD fusion (Arabidopsis thaliana) (UniProt Q39026).
Assay [5] deals with T4, MPK7, yeast two-hybrid fusion (Arabidopsis thaliana) (UniProt Q39027).
T4 sequence: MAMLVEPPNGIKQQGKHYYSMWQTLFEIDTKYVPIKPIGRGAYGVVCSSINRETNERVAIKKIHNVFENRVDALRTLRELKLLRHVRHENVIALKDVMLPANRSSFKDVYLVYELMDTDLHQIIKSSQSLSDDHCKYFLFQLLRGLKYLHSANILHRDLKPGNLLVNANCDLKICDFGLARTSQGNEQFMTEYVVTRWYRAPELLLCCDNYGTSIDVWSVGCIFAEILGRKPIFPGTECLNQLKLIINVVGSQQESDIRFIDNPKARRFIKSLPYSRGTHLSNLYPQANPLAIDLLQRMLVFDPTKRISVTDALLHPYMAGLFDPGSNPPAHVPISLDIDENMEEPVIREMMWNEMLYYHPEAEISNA

Assay [6] has as its target T5, SnRK2.10, BD fusion (Arabidopsis thaliana) (UniProt Q9C958).
T5 sequence: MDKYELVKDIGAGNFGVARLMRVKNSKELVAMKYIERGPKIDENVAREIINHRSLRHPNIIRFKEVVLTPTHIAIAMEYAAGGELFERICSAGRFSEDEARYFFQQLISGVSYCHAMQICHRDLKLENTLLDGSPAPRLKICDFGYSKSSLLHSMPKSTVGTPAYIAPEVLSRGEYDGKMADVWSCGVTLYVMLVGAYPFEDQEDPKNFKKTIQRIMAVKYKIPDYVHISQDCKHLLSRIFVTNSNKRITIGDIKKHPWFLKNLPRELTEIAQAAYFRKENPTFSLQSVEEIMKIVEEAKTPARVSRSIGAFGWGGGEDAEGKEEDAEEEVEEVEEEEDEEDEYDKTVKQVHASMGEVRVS

The target in assay [7] is T6, SnRK2.2, BD fusion (Arabidopsis thaliana) (UniProt Q39192).
T6 sequence: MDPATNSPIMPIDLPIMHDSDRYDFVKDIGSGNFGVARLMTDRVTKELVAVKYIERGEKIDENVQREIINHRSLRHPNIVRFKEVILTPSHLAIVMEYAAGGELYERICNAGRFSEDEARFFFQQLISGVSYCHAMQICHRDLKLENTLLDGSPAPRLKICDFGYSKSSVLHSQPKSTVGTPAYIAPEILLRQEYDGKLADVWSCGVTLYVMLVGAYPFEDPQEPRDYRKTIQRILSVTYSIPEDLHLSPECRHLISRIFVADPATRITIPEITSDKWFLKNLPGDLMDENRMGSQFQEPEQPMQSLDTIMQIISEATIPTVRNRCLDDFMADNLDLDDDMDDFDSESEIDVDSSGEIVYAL

For assay [8], the target named is T7, SnRK2.3, BD fusion (Arabidopsis thaliana) (UniProt Q39193).
T7 sequence: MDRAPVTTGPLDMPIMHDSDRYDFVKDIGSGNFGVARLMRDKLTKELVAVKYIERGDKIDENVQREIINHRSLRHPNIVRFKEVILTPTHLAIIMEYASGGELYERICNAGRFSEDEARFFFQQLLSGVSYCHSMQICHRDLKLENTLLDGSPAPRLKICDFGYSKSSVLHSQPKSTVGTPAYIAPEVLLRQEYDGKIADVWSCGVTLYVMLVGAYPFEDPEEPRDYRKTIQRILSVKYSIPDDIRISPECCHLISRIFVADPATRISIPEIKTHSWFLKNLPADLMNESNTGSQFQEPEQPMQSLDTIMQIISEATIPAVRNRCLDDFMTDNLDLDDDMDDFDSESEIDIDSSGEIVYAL

In assay [9] the target is T8, SnRK2.6, BD fusion (Arabidopsis thaliana) (UniProt Q940H6).
T8 sequence: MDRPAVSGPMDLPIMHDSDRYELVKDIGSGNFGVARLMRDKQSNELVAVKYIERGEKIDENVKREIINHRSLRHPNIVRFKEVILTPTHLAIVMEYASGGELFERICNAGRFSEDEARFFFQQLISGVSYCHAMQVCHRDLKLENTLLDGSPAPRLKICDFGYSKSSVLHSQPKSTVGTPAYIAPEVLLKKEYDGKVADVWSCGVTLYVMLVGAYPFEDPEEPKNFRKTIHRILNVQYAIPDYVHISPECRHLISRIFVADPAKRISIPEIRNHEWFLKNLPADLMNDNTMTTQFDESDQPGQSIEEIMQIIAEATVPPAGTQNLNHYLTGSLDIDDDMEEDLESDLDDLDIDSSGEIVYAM

The target of assay [10] is T9, ABI5-Binding Protein 2 (AFP2), yeast two-hybrid fusions (Arabidopsis thaliana) (UniProt Q9LMX5).
T9 sequence: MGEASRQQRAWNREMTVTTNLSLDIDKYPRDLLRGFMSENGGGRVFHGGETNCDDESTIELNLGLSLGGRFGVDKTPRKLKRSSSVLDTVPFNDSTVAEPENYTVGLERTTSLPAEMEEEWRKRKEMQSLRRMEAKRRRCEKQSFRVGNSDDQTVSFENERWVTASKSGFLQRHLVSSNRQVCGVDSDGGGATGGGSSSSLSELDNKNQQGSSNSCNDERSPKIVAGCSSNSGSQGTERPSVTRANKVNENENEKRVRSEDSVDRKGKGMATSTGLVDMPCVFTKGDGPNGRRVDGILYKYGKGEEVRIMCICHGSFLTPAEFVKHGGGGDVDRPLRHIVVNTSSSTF

No constants are given. Whether binding was seen depends on the method and setting. Some results given as binding are weak or reduced against the parent protein; the word gives no strength. Sequences can lack the tags named with a protein.

As to “ABA-… 1 (ABI1), AD fusion (from UniProt P49597 1-434) (enzyme)”, the binding result in assay [1] and in assay [2] was “no binding” in each case.

B1: ABI5-Binding Protein 3 (AFP3), yeast two-hybrid fusions (protein, UniProt Q94F39 1-231)
chain: T1 sequence
Turning to B1, the binding entry was “binds” in [3]; “binds” in assay [4]; “binds” in [5]; “no binding” in assay [6]; “no binding” in assay [7]; “binds” in assay [8]. Moreover, in assay [9], the binding entry is “binds”.

B2: ABI5-Binding Protein 1 (AFP1), yeast two-hybrid fusions (protein, UniProt Q9LQ98 1-345)
chain: MAEANERSKEMARSNSCVFPRDLLQRFISNSVEGEDDDEEEDDDEIELNLGLSLGGRFGVDKSNKLVRSSSVVVTMPLFREDHHHHQAAAMITTKVSTETVAGATRGTGLMRTTSLPAESEEEWRKRKEMQTLRRMAAKRRRSEKLRTGVGGGNSNNPEEAATATASRRRGRPSSGLPRWSATANKSGLLRQHSAGLDSLQVSGESLGGGRAAGSSSSVSELETKASSDEARSLPSTTQPQQETTTKPTNRLRRLSSVDMNMKMEPQGKGKSEMPCVFTKGDGPNGKRVDGILYRYGSGEEVRIMCVCHGDFLSPADFVKHAGGPHVDHPLRHIVVNTSSPSNLL
Take B2: the binding entry in assay [3] is “binds”; in assay [4], “binds”; in [5], “binds”; in assay [6] it was “no binding”; in [7] it was “no binding”; in assay [8] it was “binds”. For the same molecule, the binding entry in assay [9] is listed as “binds”.

B3: ABI5-Binding Protein 2 (AFP2), yeast two-hybrid fusions (protein, UniProt Q9LMX5 1-348)
chain: T9 sequence
In the case of B3, the binding entry is on record as “binds” in [10]; “binds” in assay [3]; “binds” in assay [4]; “binds” in [5]; “no binding” in assay [6]; “binds” in [7]. Also, the binding result in assay [8] and in assay [9] was “binds” throughout.
